Experiment in all cases: co-IP; parasite samples solubilized in 1% (v/v) Triton X-100; anti-HA affinity matrix or anti-FLAG M2 affinity gel; Total, Unbound and Bound fractions on SDS-PAGE, western blots with anti-HA, anti-FLAG and anti-TgTom40
On the technique in general: In western blotting, separated proteins are transferred to a membrane and probed.

Amino acid sequences for entries named in this document (tags omitted).
UniProt A0A125YN38: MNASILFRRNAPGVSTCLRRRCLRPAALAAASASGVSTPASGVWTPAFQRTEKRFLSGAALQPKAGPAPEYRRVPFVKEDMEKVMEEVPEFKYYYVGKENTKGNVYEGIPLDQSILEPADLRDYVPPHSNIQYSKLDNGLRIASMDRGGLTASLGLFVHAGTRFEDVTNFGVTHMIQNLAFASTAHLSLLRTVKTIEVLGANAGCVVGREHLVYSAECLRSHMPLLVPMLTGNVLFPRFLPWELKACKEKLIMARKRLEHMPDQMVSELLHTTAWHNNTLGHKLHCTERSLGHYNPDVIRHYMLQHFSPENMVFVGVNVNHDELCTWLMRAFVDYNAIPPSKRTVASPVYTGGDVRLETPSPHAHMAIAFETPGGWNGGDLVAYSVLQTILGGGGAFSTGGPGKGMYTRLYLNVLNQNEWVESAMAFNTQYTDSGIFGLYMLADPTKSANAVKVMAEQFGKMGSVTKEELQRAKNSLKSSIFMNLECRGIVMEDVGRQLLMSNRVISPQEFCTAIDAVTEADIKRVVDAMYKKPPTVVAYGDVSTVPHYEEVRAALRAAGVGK
UniProt A0A125YZN9: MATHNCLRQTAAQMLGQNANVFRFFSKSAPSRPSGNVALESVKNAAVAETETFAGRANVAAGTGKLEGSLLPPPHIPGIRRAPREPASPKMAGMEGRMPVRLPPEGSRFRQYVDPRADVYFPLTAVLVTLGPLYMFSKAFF
UniProt A0A125YW19: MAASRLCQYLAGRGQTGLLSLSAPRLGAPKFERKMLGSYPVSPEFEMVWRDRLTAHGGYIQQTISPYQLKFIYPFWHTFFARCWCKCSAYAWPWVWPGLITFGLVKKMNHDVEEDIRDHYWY

For experiment [1], the target named is TgQCR12-FLAG (Toxoplasma gondii).
The target in experiment [2] is T1, TgQCR11-FLAG (Toxoplasma gondii) (UniProt S7UR33).
T1 sequence: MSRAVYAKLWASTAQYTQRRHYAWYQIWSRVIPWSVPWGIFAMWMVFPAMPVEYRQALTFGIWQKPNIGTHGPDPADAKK

The target in experiment [3] is T2, TgQCR9-FLAG (Toxoplasma gondii) (UniProt S7UVH4).
T2 sequence: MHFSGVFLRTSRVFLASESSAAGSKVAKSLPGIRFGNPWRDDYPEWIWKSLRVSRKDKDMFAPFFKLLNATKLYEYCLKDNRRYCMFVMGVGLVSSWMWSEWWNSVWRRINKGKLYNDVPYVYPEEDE

Experiment [4] deals with TgQCR8-FLAG (Toxoplasma gondii).
The target in experiment [5] is TgMPPα-HA (Toxoplasma gondii).

These are yes or no findings as the source states them, for the method shown. In cells and extracts the contact can be indirect. Some results given as binding are weak or reduced against the parent protein; the word gives no strength. For part of these data: Sequences can lack the tags named with a protein.

Consider “TgMPPα-HA (from UniProt A0A125YN38 1-563)”, for which the binding entry in experiment [1], in experiment [2], in experiment [3] and in experiment [4] was “binds” throughout.

As for “TgQCR12-FLAG (from UniProt A0A125YZN9 1-141)”, in experiment [5], the binding result is on record as “binds”.

Take “TgQCR8-FLAG (from UniProt A0A125YW19 1-122)”: the binding result in experiment [5] was “binds”.

B1: TgQCR9-FLAG (protein, UniProt S7UVH4 1-128)
chain: MHFSGVFLRTSRVFLASESSAAGSKVAKSLPGIRFGNPWRDDYPEWIWKSLRVSRKDKDMFAPFFKLLNATKLYEYCLKDNRRYCMFVMGVGLVSSWMWSEWWNSVWRRINKGKLYNDVPYVYPEEDE
Consider B1, for which the binding result in experiment [5] is “binds”.

B2: TgQCR11-FLAG (protein, UniProt S7UR33 1-80)
chain: MSRAVYAKLWASTAQYTQRRHYAWYQIWSRVIPWSVPWGIFAMWMVFPAMPVEYRQALTFGIWQKPNIGTHGPDPADAKK
Regarding B2, in experiment [5], the binding result was “binds”.

B3: TgCytC1-HA (protein, UniProt S7W9J5 1-398)
chain: MGGGGGGALNKLFPGYKDKIWMKVPVQWRQQMIQHWNKSYEKQVYSESVALNRTFQARNQLVLDRLKPSGAYRLPAVDYKRQLSRGTLVEGADFYLPTAQEQQRLARHFEPYSEQEQEERRKFRFQSISVYLAVALGASFVHDYFYQRRPVAWCLEKEPPHPPSYPFWFKSLFHSHDIPSVRRGYEVYRKVCATCHSMEQLHFRHLVGEVLPEKRVKQIAAEYDVTDGPNDQGEMYTRPGILGDAFPSPYPNEEAARYANGGAYPPDLSLITAARHFGPDYLMALLGGYRDPPEGVELRPGLYWNVWFPGNAIAMPPPLMDEMIDYEDGTPCNISQMSKDVVNFLTWATEPTADERKLYGLKCVSAIAIGTVLMTLWWRFYWAMYATRRIDFGKLKYL
As for B3, the binding result in experiment [2] was “binds”.

These data come from article PMC7877769.
